No constants are given. Whether binding was seen depends on the method and setting. Some results given as binding are weak or reduced against the parent protein; the word gives no strength. Each block holds one molecule with its values, some of them ahead of it.
Key:
[1] = biological target: recombinant IL-1R1 (R&D Systems) (UniProt P14778); test: SPR (BIACORE 3000), IL-1R1 on CM5 chip, 100 nM IL-1ra
[2] = biological target: IL-1R1-Fc fusion protein (Axxora) (UniProt P14778); test: competition ELISA, IL-1R1-Fc coated, competitor 500 pM IL-1ra
[3] = biological target: IL-1R1-Fc fusion protein (Axxora) (UniProt P14778); test: competition ELISA, IL-1R1 coated plate, competitor 500 pM IL-1ra

The chains behind the UniProt entries cited, without tags or fusion partners. Where a name states a change or a piece, a line headed by the entry shows the natural chain unless it says otherwise. Residues count along the entry.
UniProt P14778: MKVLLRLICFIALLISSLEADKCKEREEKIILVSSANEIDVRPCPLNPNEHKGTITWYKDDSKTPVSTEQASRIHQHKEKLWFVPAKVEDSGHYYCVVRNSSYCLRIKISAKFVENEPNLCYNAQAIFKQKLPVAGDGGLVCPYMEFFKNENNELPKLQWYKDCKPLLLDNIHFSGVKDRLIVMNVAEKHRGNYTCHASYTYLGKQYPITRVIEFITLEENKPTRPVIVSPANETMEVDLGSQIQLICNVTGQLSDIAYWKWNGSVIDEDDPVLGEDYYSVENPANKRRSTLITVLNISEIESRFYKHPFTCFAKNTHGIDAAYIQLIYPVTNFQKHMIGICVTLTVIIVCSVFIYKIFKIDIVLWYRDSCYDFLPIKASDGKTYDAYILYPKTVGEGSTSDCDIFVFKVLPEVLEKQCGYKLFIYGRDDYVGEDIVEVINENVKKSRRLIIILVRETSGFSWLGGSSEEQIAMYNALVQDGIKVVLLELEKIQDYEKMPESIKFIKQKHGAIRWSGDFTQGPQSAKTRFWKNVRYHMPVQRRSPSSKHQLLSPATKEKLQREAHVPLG
IL-1R1-Fc fusion protein (Axxora): residues 18-336 of P14778
recombinant IL-1R1 (R&D Systems): residues 18-332 of P14778
UniProt P18510, residues 26-177: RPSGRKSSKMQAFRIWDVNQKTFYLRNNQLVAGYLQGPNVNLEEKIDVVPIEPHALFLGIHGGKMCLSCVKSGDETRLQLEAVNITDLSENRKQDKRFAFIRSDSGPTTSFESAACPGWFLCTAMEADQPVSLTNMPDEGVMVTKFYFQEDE

binding [1]: binds
Molecule: Interleukin 1 receptor antagonist (IL-1ra) (from UniProt P18510 26-177) (ligand)

binding [2]: binds
binding [3]: binds
B1: Interleukin-1α (IL-1α) (ligand, UniProt P01583 113-271, looked up)
chain: SAPFSFLSNVKYNFMRIIKYEFILNDALNQSIIRANDQYLTAAALHNLDEAVKFDMGAYKSSKDDAKITVILRISKTQLYVTAQDEDQPVLLKEMPEIPKTITGSETNLLFFWETHGTKNYFTSVAHPNLFIATKQDYWVCLAGGPPSITDFQILENQA

Reference: US20080311111A1
